These are yes or no findings as the source states them, for the method shown. For some assays here: In cells and extracts the contact can be indirect. Some binding calls cover weakened binding; strength is not graded here. For some assays here: Where a sequence is shown, tags or fusion partners need not be part of it.
Legend:
[1] = target: full-length flag-tagged integrin α5ß1 (human) (UniProt P08648+P05556); assay: co-IP; transiently transfected HEK293 cells, no Tie2 or integrin ligands added; 1 mg lysate, IP with anti-Flag antibody and Protein-A beads overnight; blot anti-HA, anti-myc or anti-GFP
[2] = target: full-length flag-tagged integrin αVß3 (human) (UniProt P06756+P05106); assay: as above
[3] = target: T1, Tie1(1–4)-Fc, region of Tie1 equivalent to the Tie2 ligand-binding domain (excluding the fibronectin repeats) (UniProt P35590); assay: pull-down; competition: 33nM Tie1(1–4)-Fc and 12.5nM α5ß1 ectodomain with 100nM or 600nM untagged Tie2(1–4); Tie1(1–4)-Fc precipitated with Protein-A sepharose; blot anti-α5; both purified
T1 sequence: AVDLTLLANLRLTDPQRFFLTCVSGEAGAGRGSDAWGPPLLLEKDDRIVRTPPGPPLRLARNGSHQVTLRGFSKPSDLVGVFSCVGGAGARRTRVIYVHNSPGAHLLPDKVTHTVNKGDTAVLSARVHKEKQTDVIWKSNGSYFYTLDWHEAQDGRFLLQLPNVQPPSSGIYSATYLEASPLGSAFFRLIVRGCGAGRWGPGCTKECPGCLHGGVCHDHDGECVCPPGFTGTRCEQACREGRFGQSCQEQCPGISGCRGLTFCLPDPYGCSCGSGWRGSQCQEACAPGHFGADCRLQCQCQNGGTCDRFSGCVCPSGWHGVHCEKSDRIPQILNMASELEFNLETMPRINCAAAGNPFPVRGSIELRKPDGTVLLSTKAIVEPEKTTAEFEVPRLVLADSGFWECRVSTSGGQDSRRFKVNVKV

Sequences of proteins named here, by UniProt entry; tags and fusion partners are left off. A change or cut given only in a name is not applied to a line headed by its entry. Residues count along the entry.
UniProt P08648: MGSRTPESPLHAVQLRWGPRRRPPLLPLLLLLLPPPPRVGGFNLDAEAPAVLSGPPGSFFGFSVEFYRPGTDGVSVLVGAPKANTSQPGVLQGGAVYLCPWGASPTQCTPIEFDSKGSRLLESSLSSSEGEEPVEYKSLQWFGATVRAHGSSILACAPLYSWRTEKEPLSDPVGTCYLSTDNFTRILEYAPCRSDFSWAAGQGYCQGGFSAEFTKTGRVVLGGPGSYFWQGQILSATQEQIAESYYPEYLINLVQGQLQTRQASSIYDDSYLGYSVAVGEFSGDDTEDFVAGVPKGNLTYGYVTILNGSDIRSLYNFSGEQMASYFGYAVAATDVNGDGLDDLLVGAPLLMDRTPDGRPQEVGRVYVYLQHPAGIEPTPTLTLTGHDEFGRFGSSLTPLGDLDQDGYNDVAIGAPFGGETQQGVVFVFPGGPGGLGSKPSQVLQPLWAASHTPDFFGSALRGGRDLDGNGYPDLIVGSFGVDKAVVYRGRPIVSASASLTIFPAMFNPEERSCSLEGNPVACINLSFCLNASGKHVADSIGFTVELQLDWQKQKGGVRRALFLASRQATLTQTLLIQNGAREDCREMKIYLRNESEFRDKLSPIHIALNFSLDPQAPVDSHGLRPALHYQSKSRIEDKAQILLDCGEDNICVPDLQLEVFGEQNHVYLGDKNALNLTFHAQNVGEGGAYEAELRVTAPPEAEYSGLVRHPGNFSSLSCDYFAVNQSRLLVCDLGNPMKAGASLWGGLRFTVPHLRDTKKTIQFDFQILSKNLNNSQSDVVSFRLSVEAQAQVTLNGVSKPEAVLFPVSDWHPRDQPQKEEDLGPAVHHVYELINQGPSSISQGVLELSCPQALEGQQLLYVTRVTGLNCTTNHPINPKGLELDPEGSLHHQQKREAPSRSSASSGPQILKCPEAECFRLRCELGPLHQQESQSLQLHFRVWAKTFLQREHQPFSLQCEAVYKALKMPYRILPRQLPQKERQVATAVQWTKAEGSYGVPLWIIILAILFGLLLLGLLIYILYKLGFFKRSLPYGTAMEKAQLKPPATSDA
UniProt P05556: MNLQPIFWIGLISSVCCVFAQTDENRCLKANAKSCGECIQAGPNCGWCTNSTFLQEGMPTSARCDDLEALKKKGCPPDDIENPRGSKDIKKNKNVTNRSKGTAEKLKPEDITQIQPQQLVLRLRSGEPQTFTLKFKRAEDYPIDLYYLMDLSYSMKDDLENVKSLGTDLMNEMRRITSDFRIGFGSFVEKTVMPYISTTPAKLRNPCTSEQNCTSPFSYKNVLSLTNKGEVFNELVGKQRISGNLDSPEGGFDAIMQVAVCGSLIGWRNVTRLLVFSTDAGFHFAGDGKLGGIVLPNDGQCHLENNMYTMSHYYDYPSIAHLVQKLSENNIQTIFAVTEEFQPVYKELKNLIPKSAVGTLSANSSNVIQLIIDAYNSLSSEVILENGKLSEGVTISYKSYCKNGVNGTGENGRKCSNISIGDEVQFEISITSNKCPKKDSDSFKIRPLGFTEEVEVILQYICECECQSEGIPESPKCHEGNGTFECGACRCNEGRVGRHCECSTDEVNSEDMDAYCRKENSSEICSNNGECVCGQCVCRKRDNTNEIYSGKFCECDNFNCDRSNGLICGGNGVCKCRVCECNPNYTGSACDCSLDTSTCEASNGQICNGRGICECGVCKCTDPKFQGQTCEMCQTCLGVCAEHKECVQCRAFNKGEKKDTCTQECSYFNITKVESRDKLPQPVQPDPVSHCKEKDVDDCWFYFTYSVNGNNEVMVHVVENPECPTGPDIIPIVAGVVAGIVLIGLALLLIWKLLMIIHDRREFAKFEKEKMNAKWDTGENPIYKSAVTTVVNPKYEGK
UniProt P06756: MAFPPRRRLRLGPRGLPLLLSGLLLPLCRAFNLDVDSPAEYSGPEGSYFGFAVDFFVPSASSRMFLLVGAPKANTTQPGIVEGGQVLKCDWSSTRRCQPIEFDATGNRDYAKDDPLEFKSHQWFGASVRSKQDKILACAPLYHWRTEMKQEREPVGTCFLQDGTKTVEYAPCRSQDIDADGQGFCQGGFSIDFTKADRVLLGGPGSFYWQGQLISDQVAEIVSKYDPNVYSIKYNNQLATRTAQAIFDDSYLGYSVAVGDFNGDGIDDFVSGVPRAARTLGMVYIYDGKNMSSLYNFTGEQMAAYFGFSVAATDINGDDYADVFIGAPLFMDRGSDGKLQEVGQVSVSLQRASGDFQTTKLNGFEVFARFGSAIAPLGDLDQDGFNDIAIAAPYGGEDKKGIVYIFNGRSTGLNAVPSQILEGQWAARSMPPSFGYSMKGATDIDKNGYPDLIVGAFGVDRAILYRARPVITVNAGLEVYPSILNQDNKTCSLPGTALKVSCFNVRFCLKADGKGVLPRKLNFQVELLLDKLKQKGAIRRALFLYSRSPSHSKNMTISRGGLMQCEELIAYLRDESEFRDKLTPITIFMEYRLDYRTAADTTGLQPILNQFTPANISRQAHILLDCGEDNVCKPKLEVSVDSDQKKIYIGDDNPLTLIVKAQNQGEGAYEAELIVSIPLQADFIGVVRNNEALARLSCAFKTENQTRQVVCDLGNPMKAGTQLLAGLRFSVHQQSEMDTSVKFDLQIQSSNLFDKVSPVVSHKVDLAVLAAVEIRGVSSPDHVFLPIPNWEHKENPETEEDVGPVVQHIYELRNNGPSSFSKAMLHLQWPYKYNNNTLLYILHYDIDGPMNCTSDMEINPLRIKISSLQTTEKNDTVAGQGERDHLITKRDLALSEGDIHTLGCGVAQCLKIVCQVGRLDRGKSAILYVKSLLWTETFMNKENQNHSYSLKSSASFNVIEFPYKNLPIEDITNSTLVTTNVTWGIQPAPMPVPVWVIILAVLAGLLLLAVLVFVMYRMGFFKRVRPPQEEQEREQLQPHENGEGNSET
UniProt P05106: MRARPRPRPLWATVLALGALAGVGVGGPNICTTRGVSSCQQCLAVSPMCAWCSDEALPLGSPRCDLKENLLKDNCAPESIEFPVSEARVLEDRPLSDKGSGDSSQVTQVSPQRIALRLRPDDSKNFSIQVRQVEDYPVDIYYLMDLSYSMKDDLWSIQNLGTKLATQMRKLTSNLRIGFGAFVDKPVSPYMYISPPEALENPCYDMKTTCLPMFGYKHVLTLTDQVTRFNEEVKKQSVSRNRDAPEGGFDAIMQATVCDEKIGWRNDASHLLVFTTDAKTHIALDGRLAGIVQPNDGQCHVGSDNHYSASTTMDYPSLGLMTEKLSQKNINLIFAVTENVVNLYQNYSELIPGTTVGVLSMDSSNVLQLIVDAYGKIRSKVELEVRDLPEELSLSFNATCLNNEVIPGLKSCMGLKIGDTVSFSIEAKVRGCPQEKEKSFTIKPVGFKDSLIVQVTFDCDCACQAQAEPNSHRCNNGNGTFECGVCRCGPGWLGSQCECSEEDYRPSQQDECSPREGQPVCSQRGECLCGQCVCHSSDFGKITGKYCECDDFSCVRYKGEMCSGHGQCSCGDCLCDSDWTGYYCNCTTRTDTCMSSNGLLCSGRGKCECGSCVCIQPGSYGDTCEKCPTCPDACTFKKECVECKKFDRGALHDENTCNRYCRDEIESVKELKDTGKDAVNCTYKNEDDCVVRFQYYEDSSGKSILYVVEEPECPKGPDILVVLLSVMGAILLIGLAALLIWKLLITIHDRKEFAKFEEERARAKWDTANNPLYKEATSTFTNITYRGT
UniProt Q02763, residues 23-1124: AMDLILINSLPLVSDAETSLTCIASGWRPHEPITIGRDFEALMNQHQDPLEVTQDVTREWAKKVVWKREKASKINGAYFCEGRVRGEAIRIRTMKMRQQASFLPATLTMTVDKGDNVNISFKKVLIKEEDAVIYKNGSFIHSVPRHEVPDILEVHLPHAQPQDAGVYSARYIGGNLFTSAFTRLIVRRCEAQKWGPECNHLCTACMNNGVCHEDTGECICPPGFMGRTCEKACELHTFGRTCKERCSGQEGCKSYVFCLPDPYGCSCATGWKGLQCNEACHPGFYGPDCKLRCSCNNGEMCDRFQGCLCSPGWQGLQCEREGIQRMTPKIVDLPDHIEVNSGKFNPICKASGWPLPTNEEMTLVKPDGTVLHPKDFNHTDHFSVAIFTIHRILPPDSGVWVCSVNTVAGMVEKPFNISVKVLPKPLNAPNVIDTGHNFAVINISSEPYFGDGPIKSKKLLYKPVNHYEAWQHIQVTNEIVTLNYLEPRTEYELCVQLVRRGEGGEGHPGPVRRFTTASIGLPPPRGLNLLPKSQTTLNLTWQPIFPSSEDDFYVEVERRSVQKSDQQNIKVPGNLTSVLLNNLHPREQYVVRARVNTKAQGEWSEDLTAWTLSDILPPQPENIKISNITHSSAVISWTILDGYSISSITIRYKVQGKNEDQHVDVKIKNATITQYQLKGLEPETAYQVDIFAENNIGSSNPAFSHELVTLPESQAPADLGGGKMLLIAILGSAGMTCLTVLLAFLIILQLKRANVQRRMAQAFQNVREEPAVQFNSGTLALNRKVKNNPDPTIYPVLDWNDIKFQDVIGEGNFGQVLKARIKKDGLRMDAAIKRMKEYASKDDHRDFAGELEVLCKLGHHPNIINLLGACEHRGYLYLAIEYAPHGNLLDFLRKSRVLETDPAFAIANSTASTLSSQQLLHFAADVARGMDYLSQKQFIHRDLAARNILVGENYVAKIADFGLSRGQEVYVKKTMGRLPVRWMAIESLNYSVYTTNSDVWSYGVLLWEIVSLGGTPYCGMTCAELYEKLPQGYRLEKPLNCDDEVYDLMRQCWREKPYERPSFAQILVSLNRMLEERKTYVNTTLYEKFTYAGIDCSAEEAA

[4] = target: T1, Tie1(1–4)-Fc, region of Tie1 equivalent to the Tie2 ligand-binding domain (excluding the fibronectin repeats); assay: pull-down; pure protein immunoprecipitation: purified proteins (α5ß1 12.5nM, Tie(1–4)-Fc 33nM, Tie2 full ectodomain 24nM, Ang-RBD-Fc 50nM) in 1 mL HBST with 25 μL ProteinA beads overnight; with or without fibronectin (5μg/mL); Fc-tagged protein precipitated; western blot; both purified

| Substance | binding [1] | binding [2] | binding [3] | binding [4] |
| --- | --- | --- | --- | --- |
| full-length HA-tagged Tie1 receptor (from UniProt P35590 22-1138) | binds | binds | – | – |
| full-length myc-tagged Tie2 receptor (from UniProt Q02763 23-1124) | – | binds | – | – |
| purified α5ß1 ectodomain protein (from UniProt P08648 42-995; P05556 21-728) (complex) | – | – | binds | binds |
